Sequences and labels used below:
T1: N-His-aIF5A produced in Sso PH1-16 (pMJ05-N-His-aIF5A) (Sulfolobus solfataricus) (UniProt Q97ZE8)
T1 sequence (chain, modified, recognised by anti-hypusine antibodies (hypusine or deoxyhypusine)): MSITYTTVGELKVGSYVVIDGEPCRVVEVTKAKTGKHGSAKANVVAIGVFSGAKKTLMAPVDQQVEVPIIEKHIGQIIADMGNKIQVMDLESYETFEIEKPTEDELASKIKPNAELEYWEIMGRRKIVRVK

B1: Sugar phosphate nucleotydyl transferase (protein, UniProt Q97ZD1 1-422)
chain: MMTKWDISDVKVIIPIGGEATRLRPLTIETSKAAVRLLNRPLIEYTILELAKQGIKEFIFGVKGYVNYRSLFDLFKEGIGFSARYKIKPRVHFKYQPRVDSIGNADSVRINIEYYDINEPIVVVQGDNIFKLDITKALEFHESKSSLMTIVLKKYEGDLSEFGVADTTGDLAIRKFVEKPKRREDAPSDLINTGIYILSPEIRKIFKSNDVKEMYKMGKMDFGKDIIPYLINKGYPVYGYPMKEIWFDIGTPERYLDAMVTLLHTLSDSEIGGIRIDPNRRIFVQGTSPDSRKRRREIQRKFKKGLIKIEGDALIGRHCQIGDDTYIEESNIDNFTMIGKGVKIVRSAIMDRGYIGDNVHIENSIIARHVEIRSNNEKPVRIINSVIADDVIVGEGTEIINSRIYPHKFINAGSRIHDTILT
B2: SAM-dependent methyltransferase (protein, UniProt Q97YX4 1-176)
chain: MHHHRHYYPPEDFRRTFERPEEYLPNIFEGKKGVIVDYGCGNGFYCKYLLEFATKLYCIDINVIALKEVKEKFDSVITLSDPKEIPDNSVDFILFANSFHDMDDKQHVISEVKRILKDDGRVIIIDWRKENTGIGPPLSIRMDEKDYMGWFSNFVVEKRFNPTPYHFGLVLKRKTS
B3: Transcriptional regulator, AsnC family (protein, UniProt Q7LXS6 1-157)
chain: MSDSKKRTVDLDAIDRRLLIELTRDARTSLRRLAEEMNVSPATLHNRMTRMVQEGMIKSFVALLDYSKLGFALTGIIMAKVDGKHLVEFEKEIANADNVTAVYDVVGEYDVVIIAKFRSVEELDSFLKQLLKNPKIERTYTSIVLNVVKEDPRIRIF
B4: Hypothetical protein SS01412 (protein, UniProt Q97YB7 1-200)
chain: MLILCVNHKVQIPVKVKYNIMAYITDDFEFWAWVSSEPKVMRMFNELEKAFKRFEGSLMSLGYNYIYLDVFPFDQRRITVVFGEYEPLPVDELEGKEEERVMKERENYFSITFDNITPSPIEQPTLLSYEVYAMWWLHHEVPEESDFVNLEGIVEKGLFHCVNGDKREGKSQTKYLLDLGECYNNLIKVVNKRDFKFPLM
B5: Pseudouridine methyltransferase Nep1 (protein, UniProt Q97WJ0 1-218)
chain: MHLNIILLEASLELVPKEIVNHPAVIKNAKRRNKKPEDTLLDISLHYHAMKYLENSHKRGRPDILHQALLVILTDPVIKGDIFIHTIQSKIIKVNPNMRPPKNYLRFIGLMEQLLKYGKIPINGDETLMEVTNLTLDNIVNRYDLILLSEKGEKINPEEICKLDEKWLLGIGAFPHGDFSDKILNLAKKIYSISGFPLETQQVLCRIFSACNSILGWP
B6: RPL30e (50S ribosomal protein) (protein, UniProt Q980R3 1-108)
chain: MIKVSEQQVSFEGELKSLLKTGKVIFGAKRAIKYIKLSKVKMVIVASTLRGDLKQDIMHYAKLSNIPVYEYKGSGWDLGTLCGKPFMISTISIIDEGDSKILDIIKER
B7: Hypothetical protein SS01383 (protein, UniProt Q97YE3 1-177)
chain: MESQLPKFLKEPEKYSRLRLLEALQELYLSIEMLKEGYSRNSASKLFLSWKALLSSIVVTNFGKIMETKKKEGKEDEIKWYMRIGYSAPTTGLIGIARDLENLGFKGLVNLTTAMLGIHRYAYNGLDEDISPFHSRSEAIISIKGLIKAEVEIVGSMKFGDEEKELFEKIKRELNNI
B8: Translation recovery factor (protein, UniProt Q97VU8 1-124)
chain: MREEEIRELYFKYFDENKLPFIQCNKCGHKFYYPRVLCPKCGSSDIEVRFSKGLGKIFAMTKVYRKDGSYVIYGIVELEEGFRMYSNIIEESQADINRKVEVIFKEINGKKYPLFKTVTHLHNF
B9: MoxR-like ATPase (protein, UniProt Q97W74 1-382)
chain: MSEKTLLELPKKFMEALMAPFIGREEEAKVITLALLSKEHVILIGEPGTAKSALARRAAELLNAKFFMYLLTKYTEPAELFGALDINALKDGQYKRITKDRLPESQIAFLDEIFNANSAILNALLSLLNERVIYDGYNVIKVPLRTLISASNRVPDEPELEALYDRLLLRHYARPVGEELWKQLLDATWEIEFTNRWAVKEPIMNIEHLDKLYSYLSQVDLSGVKNKLLKLYAMLEEKGIHLSDRRKGKVLKVVSAHAILNSRLKATEEDLIVLKYIAPREIDDFEKVAALLSEELKTPIKYMKELNEIYNNIKEAAKYVEAANESDPRLIELIRSLRATRDRIVALGKESGDEKVEEFSKEVLSEIDKLIEKVARKLGIYP
B10: Hypothetical protein SS01413 (protein, UniProt Q97YB6 1-139)
chain: MMSTSGFYQRSRRAIIYETDSLFRYTTEAELKFVIEKGVIMSYNPKGTYLTNLFTDDPNVAVKMLALSKLPRYRIGPISMSKKLFSKVKYVGIVTPKGKSRGGAKEYVFTDPIIIDVENLYVYDFKDRRTYTIRLPSIH
B11: Carbonic anhydrase (protein, UniProt Q97YU3 1-204)
chain: MISEYVDEEIKRREDYSLRRLKGIPNDRRLWILTCMDERVHVEEALGIRPEDAHIYRNAGGIVTDDAIRSASLTTNFFGTKEIIVITHTDCGMIRFTGDEVAKYFLDKGVKVNELQIDPLLPSLRLQSTEDFTKWFKFFRDLGANSPDDIALKNAEILKNHPLIPKNVTISAYVYEVETHKLRKPHQRLYELTSRFEHGTVVKE
B12: Hypothetical protein SSO0845 (protein, UniProt Q97ZN9 1-224)
chain: MHSIRMGLLGDMRLYLDIETYRPKSAFVNEKVIAIGLIADQTDYKPESSNIWDLPKVEFKYFKEWKRDERSEEWEHDEYSVVTQFYKYLKELIEKWRRKEMYIEVVGFNILRFDIPLLIQKGVEHRVGSLEELNSLWHNTFTRDYLQMALPLNNMRFKGLQLEYLAEMLREKGVNVPKPYGKGEEVKSLYENKKYDEIIKHLEADLRITRIIDLNWPRLFKPTP
B13: Nop56 (C/D box methylation guide RNP) (protein, UniProt Q97ZH3 1-412)
chain: MMKIYLIEHVIGAVAYDENGNIVDYITNPRDLGKITEELLNNEKGIPFSATVELLKKVNPQEVVVENEAEVPKLQALGYRVSYEPYSKVSRIFRESLPKVAIDIKFASNEEDYYNFLHELSLEYTRRKLRSAAQKRDLLAIQAVRAMDDIDKTINLFSERLREWYSIHFPELDKLIEDHEEYATIVSRFGDRGFLTIDSLKELGFNEQRINRILDAAKKSIGADISEDDLSAMRMIANTILDLYNIRRNLNNYLEGVMKEVAPNVTALVGPALGARLLSIAGSLDELAKMPASTIQVLGAEKALFRALRSGGRPPKHGIIFQYPAIHTSPRWQRGKIARALAAKLAIAARVDAFSGRFIGDQLNEQLKKRIDEIKEKFAQPPPKKPQQQKPQQPQKQQAKGKKGGKRRGKRK
B14: ATPase AAA (protein, UniProt Q980U9 1-769)
chain: MSASSGEEQKPQRKELILRVMEARQKDVGRGKVRIDIDLLSQIDVSPGDVVEIEGTRKTAALAWPLSPEDTTTGEKDIIRMDGITRKNAGVSIGDKVIVRKAIVKPASTVKLAPSNFSITVDPGFISYVKKRLKEFPLVEGDTVLIPVLGQAIPFTVVQVKPAGIVLVNDDTIISISDKPVEPSRYPRVTYEDIGGMKNIIEKVRELVELPLRHPELFKRLGIEPPKGILLYGPPGVGKTLLAKAIANETDAYFTSINGPEIMSKFYGESEQRLREIFEDAKKHAPAIIFVDEIDAIAPKRDEVIGEVERRVVAQLLTLMDGLENRGNVIVIAATNRPSAVDPALRRPGRFDREIEIPLPDKQGRLEILQIHTRNMPLSKDVDLEKLADMTHGYTGADLSALVREAAMNSLRRYLPKIDLNQDKIPPEILESMEVKMEDFINAFKEIVPSGLREIYIEVPEVKWTDIGGLEEIKEELKEVVEYPLKYSELYQNSGIEPPKGILLFGPPGTGKTMLAKAVATESGANFIAVRGPEILSKWVGESEKAVREIFRKARMYAPAVIFFDEIDSIAPIRGISYDSGVTERIVNQLLAEMDGIEKLENVVVIAATNRPDILDPALLRPGRFEKLIYVPPPDKRARTEILKVHTRNIALGEDISLEDVAEKTEGYTGADLAALVREATMRAIRESMKICIDKTNENCKPTDAECRDKTMKECMKVNGVKVSLRHFEEAMRKVKPSVTQDMLQFYQNWVEKARQQLPKTTVKPSTYA
B15: Oxidoreductase (protein, UniProt Q97UV9 1-304)
chain: MEKKPLGWTNEKISPLILGSWEFGTPSIIDENNAIKAIQRAIELGINAIDTAESYGNGLSETIIGRAISKFKREDLFIITKVSIDHLRYDDVLKASEGSLKRLNTSYIDLYLVHWPNHYVPIRETAKAMERLFNEGKIRYVGLSNFSLPLMREFREHLSKTDVAANELHYNVLFRDVEKEVLPYMLRENIPLLAYDALGLGYLIGRKEVRNEYRWYVLARETYIKNLEPLIEEISSIAKELGKTPAQVVLNWLVSKDNVFAIFNTTKEDHLKENLGSLGWSLRDSDLRRLDEAVKKVTIDYFAR

These are yes or no findings as the source states them, for the method shown. In cells and extracts the contact can be indirect. Here binding means that the protein was enriched with, or labelled near, the bait; the list need not be complete. Where a sequence is shown, tags or fusion partners need not be part of it.

The target of the assay is T1, N-His-aIF5A produced in Sso PH1-16 (pMJ05-N-His-aIF5A) (Sulfolobus solfataricus). Briefly: affinity purification with mass spectrometry; N-His-aIF5A and co-purifying proteins from lysate of Sso PH1-16 (pMJ05-N-His-aIF5A) on Ni-NTA agarose; wash with 300 mM NaCl; whole eluate digested with trypsin, LC-MS/MS, label free quantification against a mock purification; enriched more than ….
For the molecule B1, the binding result was “binds”.
Regarding B2, the binding entry was “binds”.
For B3 the value was “binds”; for B4, “binds”; for B5, “binds”.
In the case of B6 it was “binds”; in that of B7, “binds”.
B8: the binding entry was “binds”.
Consider B9, for which the binding entry is given as “binds”.
As for B10, the binding entry is on record as “binds”.
Consider B11, for which the binding entry is reported as “binds”.
For B12 the value was “binds”; for B13, “binds”; for B14, “binds”.
In the case of B15 it was “binds”.
